# Test system: MDA-MB-231 cells
# Assay: Fluorescence microscopy with MitoTracker red, MDA-MB-231
# Type: cell-based
# Settings: 30 μM, 1 h
smiles,measurement,value
COc1cc(N(c2ccccc2)c2ccccc2)ccc1/C=C(\C#N)C(=O)O [Phenyl (9)],cellular uptake (fluorescence microscopy),internalized
same,"intracellular localization (fluorescence microscopy, MitoTracker red)","concentrated in areas near mitochondria, but did not appear to co-localize with most mitochondria"
